Results on 35 compounds are retold here after the supplement of paper PMC4635364.

Assay [1] deals with ReNCell VM. Put plainly: neuronal differentiation score (DCX+ cell fraction vs untreated, manual image score) (score (-3 to 3)); higher = more neuronal differentiation. As to conditions: 2 uM, 2 weeks.
Assay [2] deals with ReNCell VM. The experiment in a line: dopaminergic neuron differentiation score (TH+ cell fraction vs untreated, manual image score) (score (0 to 3)); higher = more TH+ dopaminergic neuron differentiation. As to conditions: 2 uM, 4 weeks, BDNF 10 ng/ml + GDNF 10 ng/ml.

Where a name gives a salt, the structure may show the parent alone. The list shows a part of the results. Single values are uncertain here, since repeats match poorly.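 ReNCell VM, a human fetal ventral-midbrain neural progenitor line, was differentiated without mitogens. Blinded raters scored images stained for doublecortin (early neurons) or tyrosine hydroxylase (dopaminergic neurons) against untreated wells (0 = no change). Scores were averaged across repeats and both raters, and compounds averaging 2 or more were selected as hits for retesting.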

Take `NC[C@@H]1O[C@@H](O[C@H]2[C@H](O)[C@@H](O[C@H]3O[C@H](CO)[C@@H](O)[C@H](N)[C@H]3O)[C@H](N)C[C@@H]2N)[C@@H](O)[C@H](O)[C@H]1O` [Kanamycin A sulfate]: the neuronal differentiation score with ReNCell VM [1] (library: Prestwick) was inactive: 0. For the same compound, in the assay on ReNCell VM [2] (library: Prestwick), the “dopaminergic neuron differentiation score” value is inactive: 0.
`CCN1CCc2nc(N)oc2CC1` [B-HT 933 dihydrochloride]: the neuronal differentiation score in the assay on ReNCell VM [1] (library: LOPAC) was inactive: 0. For the same compound, the “dopaminergic neuron differentiation score” value in the assay with ReNCell VM [2] (library: LOPAC) was inactive: 0.
For `O=C(O)[C@@H]1CCCN1` [L-Proline], in the assay with ReNCell VM [1] (library: Phytochemical), the neuronal differentiation score was inactive: 0. Also, the “dopaminergic neuron differentiation score” value in the assay on ReNCell VM [2] (library: Phytochemical) is inactive: 0.
As for `COC(=O)C[C@H]1C(C)(C)C(=O)[C@@H]2CC3C4=CC(=O)O[C@@H](c5ccoc5)[C@]4(C)CC[C@@H]3[C@@]1(C)C2=O` (stereo not given in full), the neuronal differentiation score with ReNCell VM [1] (library: Spectrum) is inactive: 0. For the same compound, the “dopaminergic neuron differentiation score” value with ReNCell VM [2] (library: Spectrum) is inactive: 0.
Turning to `O=C(O)CCNC(=O)c1ccc(/N=N/c2ccc(O)c(C(=O)O)c2)cc1` [Balsalazide Sodium], the neuronal differentiation score with ReNCell VM [1] (library: Prestwick) was inactive: 0. The “dopaminergic neuron differentiation score” value in the assay on ReNCell VM [2] (library: Prestwick) was inactive: 0.
In the case of `CC1(C)[C@@H](O[C@H]2O[C@H](C(=O)O)[C@@H](O)[C@H](O)[C@H]2O[C@@H]2O[C@H](C(=O)O)[C@@H](O)[C@H](O)[C@H]2O)CC[C@]2(C)[C@H]3C(=O)C=C4[C@@H]5C[C@@](C)(C(=O)O)CC[C@]5(C)CC[C@@]4(C)[C@]3(C)CC[C@@H]12`, the neuronal differentiation score in the assay on ReNCell VM [1] (library: Spectrum) is inactive: 0. Also, in the assay with ReNCell VM [2] (library: Spectrum), the “dopaminergic neuron differentiation score” value was inactive: 0.
Consider `CC(=O)Nc1c(I)c(NC(C)=O)c(I)c(C(=O)O)c1I`, for which the neuronal differentiation score with ReNCell VM [1] (library: Spectrum) was inactive: 0. Also, the “dopaminergic neuron differentiation score” value with ReNCell VM [2] (library: Spectrum) was inactive: 0.
As to `CCN1CC(CCN2CCOCC2)C(c2ccccc2)(c2ccccc2)C1=O` (stereo not given), the neuronal differentiation score in the assay on ReNCell VM [1] (library: Spectrum) was inactive: 0. Besides, the “dopaminergic neuron differentiation score” value with ReNCell VM [2] (library: Spectrum) was inactive: 0.
With `CCOC(=O)OC(C)OC(=O)[C@@H]1N2C(=O)[C@@H](NC(=O)[C@H](N)c3ccccc3)[C@H]2SC1(C)C` (stereo not given in full), in the assay on ReNCell VM [1] (library: Spectrum), the neuronal differentiation score was inactive: 0. The “dopaminergic neuron differentiation score” value in the assay with ReNCell VM [2] (library: Spectrum) was inactive: 0.
Consider `COc1ccc2cc(CCC(C)=O)ccc2c1`, for which, in the assay on ReNCell VM [1] (library: Spectrum), the neuronal differentiation score was inactive: 0. Moreover, the “dopaminergic neuron differentiation score” value in the assay on ReNCell VM [2] (library: Spectrum) is inactive: 0.
Turning to `C[C@H]1CC[C@@H](C(C)(C)O)CC2=C1CC[C@@H]2C` [guaiol], the neuronal differentiation score in the assay on ReNCell VM [1] (library: Natural) is inactive: 0. In the assay on ReNCell VM [2] (library: Natural), the “dopaminergic neuron differentiation score” value was inactive: 0.
In the case of `COCCCC/C(=N\OCCN)c1ccc(C(F)(F)F)cc1`, the neuronal differentiation score with ReNCell VM [1] (library: Spectrum) was inactive: 0. Also, in the assay with ReNCell VM [2] (library: Spectrum), the “dopaminergic neuron differentiation score” value is inactive: 0.
`CC(C)C[C@@H](C(=O)N[C@H](C(=O)OC1CCCC1)c1ccccc1)[C@H](O)C(=O)NO`: the neuronal differentiation score with ReNCell VM [1] (library: Tocriscreen) is inactive: 0. The “dopaminergic neuron differentiation score” value in the assay on ReNCell VM [2] (library: Tocriscreen) is inactive: 0.
For `N#Cc1cc2nc(O)c(O)nc2cc1[N+](=O)[O-]` [CNQX disodium salt], the neuronal differentiation score in the assay with ReNCell VM [1] (library: Tocriscreen) is inactive: 0. For the same compound, the “dopaminergic neuron differentiation score” value in the assay on ReNCell VM [2] (library: Tocriscreen) is inactive: 1.
As to `CC(C)SC(=N)N` [S-Isopropylisothiourea hydrobromide], the neuronal differentiation score in the assay with ReNCell VM [1] (library: Tocriscreen) was inactive: 0. Further, in the assay on ReNCell VM [2] (library: Tocriscreen), the “dopaminergic neuron differentiation score” value was inactive: 0.
`CCN(CC)CC#CCOC(=O)C(O)(c1ccccc1)C1CCCCC1` (stereo not given): the neuronal differentiation score in the assay on ReNCell VM [1] (library: Spectrum) was inactive: 0. For the same compound, the “dopaminergic neuron differentiation score” value in the assay on ReNCell VM [2] (library: Spectrum) is inactive: 0.
In the case of `Cc1coc2c1C(=O)C(=O)c1c-2ccc2c1CCCC2(C)C` [tanshinone IIA], the neuronal differentiation score in the assay with ReNCell VM [1] (library: Natural) was inactive: 0. Also, the “dopaminergic neuron differentiation score” value with ReNCell VM [2] (library: Natural) was inactive: 0.
For the compound `Oc1c(Cl)cc(Cl)c2cccnc12`, the neuronal differentiation score in the assay on ReNCell VM [1] (library: Spectrum) was inactive: 0. Also, the “dopaminergic neuron differentiation score” value in the assay with ReNCell VM [2] (library: Spectrum) is inactive: 0.
Take `O=C(CCCN1CCC(O)(c2ccc(Cl)cc2)CC1)c1ccc(F)cc1` [Haloperidol hydrochloride]: in the assay on ReNCell VM [1] (library: Tocriscreen), the neuronal differentiation score was inactive: 0. For the same compound, in the assay on ReNCell VM [2] (library: Tocriscreen), the “dopaminergic neuron differentiation score” value is inactive: 0.
With `Nc1nc2c(ncn2COCCO)c(=O)[nH]1`, the neuronal differentiation score with ReNCell VM [1] (library: Spectrum) is inactive: 0. Moreover, the “dopaminergic neuron differentiation score” value in the assay on ReNCell VM [2] (library: Spectrum) is inactive: 0.
For `COC(=O)C1Cc2c([nH]c3ccccc23)CN1C(=O)COc1ccc2c(C)cc(=O)oc2c1` (stereo not given), the neuronal differentiation score in the assay with ReNCell VM [1] (library: Natural) was inactive: -1. Also, the “dopaminergic neuron differentiation score” value in the assay on ReNCell VM [2] (library: Natural) was inactive: 0.
As for `NC1(C(=O)O)CCCC1`, the neuronal differentiation score in the assay on ReNCell VM [1] (library: Spectrum) is inactive: 0. Moreover, in the assay on ReNCell VM [2] (library: Spectrum), the “dopaminergic neuron differentiation score” value was inactive: 0.
For `CN1c2ccccc2C(O)=C(c2ccccc2)C1O` (stereo not given) [n-methyl-2,4-dihydroxy-3-phenylquinoline], in the assay on ReNCell VM [1] (library: Natural), the neuronal differentiation score was inactive: 0. In addition, the “dopaminergic neuron differentiation score” value in the assay on ReNCell VM [2] (library: Natural) is inactive: 0.
On to `OCCN1CCN(CCCN2c3ccccc3Sc3ccc(Cl)cc32)CC1`, for which the neuronal differentiation score in the assay with ReNCell VM [1] (library: Spectrum) was inactive: 0. Besides, the “dopaminergic neuron differentiation score” value with ReNCell VM [2] (library: Spectrum) is inactive: 0.
As for `CC(=O)N1CCCC1C(=O)O` (stereo not given), the neuronal differentiation score with ReNCell VM [1] (library: Spectrum) is inactive: 0. In the assay on ReNCell VM [2] (library: Spectrum), the “dopaminergic neuron differentiation score” value is inactive: 0.
For the compound `CN/C(=N\c1ccc(C2=NNC(=O)CC2C)cc1)NC#N` (stereo not given) [Siguazodan], in the assay with ReNCell VM [1] (library: Tocriscreen), the neuronal differentiation score was inactive: 0. Moreover, the “dopaminergic neuron differentiation score” value in the assay with ReNCell VM [2] (library: Tocriscreen) was inactive: 0.
On to `OC1CCC(Nc2nc(-c3ccccc3)nc3[nH]ccc23)CC1` (stereo not given), for which the neuronal differentiation score in the assay with ReNCell VM [1] (library: Tocriscreen) is inactive: 0. Moreover, in the assay on ReNCell VM [2] (library: Tocriscreen), the “dopaminergic neuron differentiation score” value was active: 3.
With `CNCCC=C1c2ccccc2CCc2ccccc21`, the neuronal differentiation score in the assay on ReNCell VM [1] (library: Spectrum) was inactive: 0. For the same compound, the “dopaminergic neuron differentiation score” value in the assay with ReNCell VM [2] (library: Spectrum) is inactive: 0.
For the compound `COc1cc(N)c(Cl)cc1C(=O)NC1CCN(Cc2ccccc2)CC1` [Clebopride maleate], the neuronal differentiation score in the assay with ReNCell VM [1] (library: Prestwick) was inactive: 0. In the assay with ReNCell VM [2] (library: Prestwick), the “dopaminergic neuron differentiation score” value was inactive: 0.
In the case of `CC(C)=CCc1c(O)cc2oc(C)cc(=O)c2c1O`, in the assay on ReNCell VM [1] (library: Spectrum), the neuronal differentiation score is inactive: -1. Moreover, the “dopaminergic neuron differentiation score” value with ReNCell VM [2] (library: Spectrum) was inactive: 0.
`Clc1ccc(C(c2ccc(Cl)cc2)[n+]2ccn(CC(OCc3ccc(Cl)cc3Cl)c3ccc(Cl)cc3Cl)c2)cc1` (stereo not given) [Calmidazolium chloride]: the neuronal differentiation score with ReNCell VM [1] (library: LOPAC) is inactive: 0. For the same compound, the “dopaminergic neuron differentiation score” value in the assay on ReNCell VM [2] (library: LOPAC) was inactive: 0.
As for `NC1CCN(c2c(F)cc3c(=O)c(C(=O)O)cn(C4CC4)c3c2Cl)C1` (stereo not given) [Clinafloxacin], in the assay with ReNCell VM [1] (library: Prestwick), the neuronal differentiation score was inactive: 0. For the same compound, in the assay with ReNCell VM [2] (library: Prestwick), the “dopaminergic neuron differentiation score” value is inactive: 0.
`c1coc(CNc2ncnc3[nH]cnc23)c1`: the neuronal differentiation score in the assay with ReNCell VM [1] (library: Spectrum) is inactive: 0. In addition, the “dopaminergic neuron differentiation score” value with ReNCell VM [2] (library: Spectrum) is inactive: 0.
In the case of `O=C(O)Cc1cccc(OCCCN(Cc2cccc(C(F)(F)F)c2Cl)CC(c2ccccc2)c2ccccc2)c1` [GW 3965 hydrochloride], in the assay on ReNCell VM [1] (library: Tocriscreen), the neuronal differentiation score was inactive: 0. In addition, the “dopaminergic neuron differentiation score” value with ReNCell VM [2] (library: Tocriscreen) was inactive: 0.
Turning to `CC(=O)N[C@@H](CC(C)C)C(=O)O`, the neuronal differentiation score in the assay on ReNCell VM [1] (library: Spectrum) was inactive: 0. Further, the “dopaminergic neuron differentiation score” value with ReNCell VM [2] (library: Spectrum) was active: 3.
